{"source": "the supplement of paper PMC8728848", "binders": {"B1": {"name": "LlpA (Arthrobacter sp) (protein)", "chain": "MGSSHHHHHHSSGLVPRGSHMTLHPETALRPGAAATSPNSRYRLLYQTDGNLVLYGPDGPLWDSGTNGHGAGACIMQADGNLVLYGPNDEYVWDTETDNNPGSRLVIQDDGNAVIYRPDGSPLWATETCQPPGSADSHVLQSGSTLTPTHGIRSANGLYGLLYQTDGNLVFYGPDGPLWDSGTNGRGAGACIMQPDGNLVLYGPHDEYVWDTETDNNPGSRLVIQDDGNAVIYRPDGNPTWVTGTH"}}, "test_in_all_cases": "glycan array binding signal (z-score within array); higher = stronger binding", "details_in_all_cases": "glycan notation: IUPAC condensed, linker removed", "key": {"Fuc(a1-2)Gal": {"target": "Fuc(a1-2)Gal", "in_short": "(§1)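 From the Consortium for Functional Glycomics database, 3228 arrays were curated, keeping only those whose protein sequence was available. Binding is given as a within-array Z-score averaged across arrays sharing a protein sequence and across linkers. Negative Z-scores can be read as non-binding.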"}, "Fuc(a1-2)Gal(b1-3)GalNAc": {"target": "Fuc(a1-2)Gal(b1-3)GalNAc", "in_short": "as §1"}, "[1]": {"target": "Fuc(a1-2)Gal(b1-3)GalNAc(a1-3)[Fuc(a1-2)]Gal(b1-4)Glc", "in_short": "as §1"}, "[2]": {"target": "Fuc(a1-2)Gal(b1-3)GalNAc(a1-3)[Fuc(a1-2)]Gal(b1-4)GlcNAc", "in_short": "as §1"}, "[3]": {"target": "Fuc(a1-2)Gal(b1-3)GalNAc(b1-3)Gal", "in_short": "as §1"}, "[4]": {"target": "Fuc(a1-2)Gal(b1-3)GalNAc(b1-3)Gal(a1-4)Gal(b1-4)Glc", "in_short": "as §1"}, "[5]": {"target": "Fuc(a1-2)Gal(b1-3)GalNAc(b1-4)[Neu5Ac(a2-3)]Gal(b1-4)Glc", "in_short": "as §1"}, "Fuc(a1-2)Gal(b1-3)GlcNAc": {"target": "Fuc(a1-2)Gal(b1-3)GlcNAc", "in_short": "as §1"}, "[6]": {"target": "Fuc(a1-2)Gal(b1-3)GlcNAc(b1-2)Man(a1-3)[Fuc(a1-2)Gal(b1-3)GlcNAc(b1-2)Man(a1-6)]Man(b1-4)GlcNAc(b1-4)GlcNAc", "in_short": "as §1"}, "[7]": {"target": "Fuc(a1-2)Gal(b1-3)GlcNAc(b1-2)Man(a1-3)[Fuc(a1-2)Gal(b1-3)GlcNAc(b1-2)Man(a1-6)]Man(b1-4)GlcNAc(b1-4)[Fuc(a1-6)]GlcNAc", "in_short": "as §1"}, "[8]": {"target": "Fuc(a1-2)Gal(b1-3)GlcNAc(b1-3)Gal(b1-4)Glc", "in_short": "as §1"}, "[9]": {"target": "Fuc(a1-2)Gal(b1-3)GlcNAc(b1-3)GalNAc", "in_short": "as §1"}, "[10]": {"target": "Fuc(a1-2)Gal(b1-3)GlcNAc(b1-3)[Fuc(a1-2)Gal(b1-3)GlcNAc(b1-6)]GalNAc", "in_short": "as §1"}, "[11]": {"target": "Fuc(a1-2)Gal(b1-3)GlcNAc(b1-3)[Gal(b1-4)GlcNAc(b1-6)]Gal(b1-4)Glc", "in_short": "as §1"}, "[12]": {"target": "Fuc(a1-2)Gal(b1-3)GlcNAc(b1-3)[Neu5Ac(a2-6)Gal(b1-4)GlcNAc(b1-6)]Gal(b1-4)Glc", "in_short": "as §1"}, "[13]": {"target": "Fuc(a1-2)Gal(b1-3)GlcNAc6S", "in_short": "as §1"}, "[14]": {"target": "Fuc(a1-2)Gal(b1-3)[Fuc(a1-4)]GlcNAc", "in_short": "as §1"}, "[15]": {"target": "Fuc(a1-2)Gal(b1-3)[Fuc(a1-4)]GlcNAc(b1-2)Man(a1-3)[Fuc(a1-2)Gal(b1-3)[Fuc(a1-4)]GlcNAc(b1-2)Man(a1-3)]Man(b1-4)GlcNAc(b1-4)GlcNAc", "in_short": "as §1"}, "[16]": {"target": "Fuc(a1-2)Gal(b1-3)[Fuc(a1-4)]GlcNAc(b1-2)Man(a1-3)[Fuc(a1-2)Gal(b1-3)[Fuc(a1-4)]GlcNAc(b1-2)Man(a1-6)]Man(b1-4)GlcNAc(b1-4)[Fuc(a1-6)]GlcNAc(b1-4)[Fuc(a1-6)]GlcNAc", "in_short": "as §1"}, "[17]": {"target": "Fuc(a1-2)Gal(b1-3)[Fuc(a1-4)]GlcNAc(b1-3)[Fuc(a1-3)[Gal(b1-4)]GlcNAc(b1-6)]Gal(b1-4)Glc", "in_short": "as §1"}, "[18]": {"target": "Fuc(a1-2)Gal(b1-3)[Fuc(a1-4)]GlcNAc(b1-3)[Gal(b1-4)GlcNAc(b1-6)]Gal(b1-4)Glc", "in_short": "as §1"}, "[19]": {"target": "Fuc(a1-2)Gal(b1-4)Fuc(a1-3)]GlcNAc(b1-2)Man(a1-3)[Fuc(a1-2)Gal(b1-4)[Fuc(a1-3)]GlcNAc(b1-2)Man(a1-6)]Man(b1-4)GlcNAc(b1-4)GlcNAc", "in_short": "as §1"}, "Fuc(a1-2)Gal(b1-4)Glc": {"target": "Fuc(a1-2)Gal(b1-4)Glc", "in_short": "as §1"}, "Fuc(a1-2)Gal(b1-4)Glc6S": {"target": "Fuc(a1-2)Gal(b1-4)Glc6S", "in_short": "as §1"}, "Fuc(a1-2)Gal(b1-4)GlcNAc": {"target": "Fuc(a1-2)Gal(b1-4)GlcNAc", "in_short": "as §1"}, "[20]": {"target": "Fuc(a1-2)Gal(b1-4)GlcNAc(b1-2)Man", "in_short": "as §1"}, "[21]": {"target": "Fuc(a1-2)Gal(b1-4)GlcNAc(b1-2)Man(a1-3)[Fuc(a1-2)Gal(b1-4)GlcNAc(b1-2)Man(a1-6)]Man(b1-4)GlcNAc(b1-4)GlcNAc", "in_short": "as §1"}, "[22]": {"target": "Fuc(a1-2)Gal(b1-4)GlcNAc(b1-2)Man(a1-3)[Fuc(a1-2)Gal(b1-4)GlcNAc(b1-2)Man(a1-6)]Man(b1-4)GlcNAc(b1-4)[Fuc(a1-6)]GlcNAc", "in_short": "as §1"}, "[23]": {"target": "Fuc(a1-2)Gal(b1-4)GlcNAc(b1-2)[Fuc(a1-2)Gal(b1-4)GlcNAc(b1-4)]Man(a1-3)[Fuc(a1-2)Gal(b1-4)GlcNAc(b1-2)Man(a1-6)]Man(b1-4)GlcNAc(b1-4)GlcNAc", "in_short": "as §1"}, "[24]": {"target": "Fuc(a1-2)Gal(b1-4)GlcNAc(b1-3)Gal(b1-4)GlcNAc", "in_short": "as §1"}, "[25]": {"target": "Fuc(a1-2)Gal(b1-4)GlcNAc(b1-3)Gal(b1-4)GlcNAc(b1-2)Man(a1-3)[Fuc(a1-2)Gal(b1-4)GlcNAc(b1-3)Gal(b1-4)GlcNAc(b1-2)Man(a1-6)]Man(b1-4)GlcNAc(b1-4)GlcNAc", "in_short": "as §1"}, "[26]": {"target": "Fuc(a1-2)Gal(b1-4)GlcNAc(b1-3)Gal(b1-4)GlcNAc(b1-3)Gal(b1-4)GlcNAc", "in_short": "as §1"}, "[27]": {"target": "Fuc(a1-2)Gal(b1-4)GlcNAc(b1-3)GalNAc", "in_short": "as §1"}, "[28]": {"target": "Fuc(a1-2)Gal(b1-4)GlcNAc(b1-3)[Fuc(a1-2)Gal(b1-4)GlcNAc(b1-6)]GalNAc", "in_short": "as §1"}, "[29]": {"target": "Fuc(a1-2)Gal(b1-4)GlcNAc(b1-3)[Fuc(a1-3)[Gal(b1-4)]GlcNAc(b1-6)]Gal(b1-4)Glc", "in_short": "as §1"}, "[30]": {"target": "Fuc(a1-2)Gal(b1-4)GlcNAc(b1-6)GalNAc", "in_short": "as §1"}, "[31]": {"target": "Fuc(a1-2)Gal(b1-4)GlcNAc6S", "in_short": "as §1"}}, "note": "Some of the results follow.", "data": [{"binder": "B1", "values": [{"measurement": "glycan array binding signal (z-score)", "setting": "Fuc(a1-2)Gal", "value": 0.958}, {"measurement": "glycan array binding signal (z-score)", "setting": "Fuc(a1-2)Gal(b1-3)GalNAc", "value": -0.371}, {"measurement": "glycan array binding signal (z-score)", "setting": "[1]", "value": -0.605}, {"measurement": "glycan array binding signal (z-score)", "setting": "[2]", "value": 0.009}, {"measurement": "glycan array binding signal (z-score)", "setting": "[3]", "value": 1.33}, {"measurement": "glycan array binding signal (z-score)", "setting": "[4]", "value": -0.47}, {"measurement": "glycan array binding signal (z-score)", "setting": "[5]", "value": 0.077}, {"measurement": "glycan array binding signal (z-score)", "setting": "Fuc(a1-2)Gal(b1-3)GlcNAc", "value": -0.163}, {"measurement": "glycan array binding signal (z-score)", "setting": "[6]", "value": -0.3}, {"measurement": "glycan array binding signal (z-score)", "setting": "[7]", "value": 0.139}, {"measurement": "glycan array binding signal (z-score)", "setting": "[8]", "value": -0.863}, {"measurement": "glycan array binding signal (z-score)", "setting": "[9]", "value": -1.18}, {"measurement": "glycan array binding signal (z-score)", "setting": "[10]", "value": -0.781}, {"measurement": "glycan array binding signal (z-score)", "setting": "[11]", "value": 0.971}, {"measurement": "glycan array binding signal (z-score)", "setting": "[12]", "value": -0.973}, {"measurement": "glycan array binding signal (z-score)", "setting": "[13]", "value": -0.629}, {"measurement": "glycan array binding signal (z-score)", "setting": "[14]", "value": -0.228}, {"measurement": "glycan array binding signal (z-score)", "setting": "[15]", "value": 0.977}, {"measurement": "glycan array binding signal (z-score)", "setting": "[16]", "value": -0.025}, {"measurement": "glycan array binding signal (z-score)", "setting": "[17]", "value": -0.77}, {"measurement": "glycan array binding signal (z-score)", "setting": "[18]", "value": -1.04}, {"measurement": "glycan array binding signal (z-score)", "setting": "[19]", "value": 1.72}, {"measurement": "glycan array binding signal (z-score)", "setting": "Fuc(a1-2)Gal(b1-4)Glc", "value": 0.721}, {"measurement": "glycan array binding signal (z-score)", "setting": "Fuc(a1-2)Gal(b1-4)Glc6S", "value": 0.269}, {"measurement": "glycan array binding signal (z-score)", "setting": "Fuc(a1-2)Gal(b1-4)GlcNAc", "value": 0.418}, {"measurement": "glycan array binding signal (z-score)", "setting": "[20]", "value": -0.637}, {"measurement": "glycan array binding signal (z-score)", "setting": "[21]", "value": 1.58}, {"measurement": "glycan array binding signal (z-score)", "setting": "[22]", "value": 0.626}, {"measurement": "glycan array binding signal (z-score)", "setting": "[23]", "value": 0.125}, {"measurement": "glycan array binding signal (z-score)", "setting": "[24]", "value": -0.847}, {"measurement": "glycan array binding signal (z-score)", "setting": "[25]", "value": 1}, {"measurement": "glycan array binding signal (z-score)", "setting": "[26]", "value": 0.386}, {"measurement": "glycan array binding signal (z-score)", "setting": "[27]", "value": 0.063}, {"measurement": "glycan array binding signal (z-score)", "setting": "[28]", "value": 0.363}, {"measurement": "glycan array binding signal (z-score)", "setting": "[29]", "value": 0.676}, {"measurement": "glycan array binding signal (z-score)", "setting": "[30]", "value": 1.55}, {"measurement": "glycan array binding signal (z-score)", "setting": "[31]", "value": -1.22}]}]}
